Chains of the proteins cited; added tags and fusions are not shown.
UniProt Q9NS86, whole entry: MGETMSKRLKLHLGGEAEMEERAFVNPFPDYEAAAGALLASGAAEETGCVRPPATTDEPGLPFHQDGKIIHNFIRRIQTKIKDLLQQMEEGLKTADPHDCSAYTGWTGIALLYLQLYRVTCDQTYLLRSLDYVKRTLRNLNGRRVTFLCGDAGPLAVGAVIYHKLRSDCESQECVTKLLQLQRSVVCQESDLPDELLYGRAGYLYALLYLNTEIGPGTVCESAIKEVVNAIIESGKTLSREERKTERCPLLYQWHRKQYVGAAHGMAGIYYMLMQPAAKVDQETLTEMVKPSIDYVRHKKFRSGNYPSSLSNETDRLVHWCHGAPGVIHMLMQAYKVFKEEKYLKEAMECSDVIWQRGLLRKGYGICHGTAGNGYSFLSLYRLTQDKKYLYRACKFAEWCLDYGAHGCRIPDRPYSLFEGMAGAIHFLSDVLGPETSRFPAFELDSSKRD

In patent US12502388B2, “Lanthionine synthetase C-like 2-based therapeutics” (NImmune Biopharma, Inc., priority 2014, dated 2025):

Biological target: LANCL2 (Homo sapiens, UniProt Q9NS86)
Experiment: Surface plasmon resonance (BIACORE T200) binding to immobilized LANCL2
Conditions: read-out: SPR KD value; unit inferred

Kd: 2.3 µM and 6.3 µM
SMILES: O=C(Nc1cccc(-c2nc3ccccc3[nH]2)c1)c1ccc(C(=O)Nc2cccc(-c3nc4ccccc4[nH]3)c2)cc1

Some entries of the source have several records that differ or are many. This is not the full list of results. An entry can have further records. The records of an entry differ for a reason that is not stated; they may come from other doses, times, organisms or constructs than stated.
